From the supplement of paper PMC4862054
Small differences around the control level are noise.

What was measured:
Assay in all cases: normalised response (% of control), CellTox Green; higher = less cell death (100 = DMSO, 0 = benzethonium chloride kill control)
Settings in all cases: incubation time: 72 h
[1] = test system: HCC1599
Procedure: (§1)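 DSRT, 72 h incubation, CellTox Green / CellTiter-Glo readout. Signal is normalised to DMSO and benzethonium chloride controls. Value is the normalised response at the lowest tested concentration.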

[2] = test system: HCC1143
Procedure: as §1

[3] = test system: MFM-223
Procedure: as §1

[4] = test system: Hs578T
Procedure: as §1

[5] = test system: CAL-51
Procedure: as §1

[6] = test system: CAL-148
Procedure: as §1

[7] = test system: HCC1937
Procedure: as §1

[8] = test system: MDA-MB-453
Procedure: as §1

[9] = test system: MDA-MB-468
Procedure: as §1

[10] = test system: DU-4475
Procedure: as §1

[11] = test system: CAL-120
Procedure: as §1

[12] = test system: CAL-85-1
Procedure: as §1

[13] = test system: MDA-MB-436
Procedure: as §1

[14] = test system: MCF-10A
Procedure: as §1

[15] = test system: MDA-MB-231
Procedure: as §1

[16] = test system: BT-549
Procedure: as §1

[17] = test system: BT-474
Procedure: as §1

[18] = test system: HDQ-P1
Procedure: as §1

## CN(C)/N=N/c1[nH]cnc1C(N)=O [Dacarbazine] (1 nM)
[1]
  normalised response: 108%
[2]
  normalised response: 98.2%
[3]
  normalised response: 103%
[4]
  normalised response: 96.8%
[5]
  normalised response: 104%
[6]
  normalised response: 104%
[7]
  normalised response: 100%
[8]
  normalised response: 106%
[9]
  normalised response: 80.6%
[10]
  normalised response: 105%
[11]
  normalised response: 97.3%
[12]
  normalised response: 106%
[13]
  normalised response: 90.4%
[14]
  normalised response: 99.2%
[15]
  normalised response: 102%
[16]
  normalised response: 93.1%
[17]
  normalised response: 100%
[18]
  normalised response: 104%

## CN1CCN(c2ccc3nc(-c4c(N)c5c(F)cccc5[nH]c4=O)[nH]c3c2)CC1 [Dovitinib] (1 nM)
[1]
  normalised response: 99.5%
[2]
  normalised response: 118%
[3]
  normalised response: 95.6%
[4]
  normalised response: 107%
[5]
  normalised response: 121%
[6]
  normalised response: 102%
[7]
  normalised response: 91.5%
[8]
  normalised response: 103%
[9]
  normalised response: 83.3%
[10]
  normalised response: 98.3%
[11]
  normalised response: 102%
[12]
  normalised response: 103%
[14]
  normalised response: 104%
[15]
  normalised response: 100%
[16]
  normalised response: 102%
[17]
  normalised response: 102%
[18]
  normalised response: 94.5%

## Cc1c(C(=O)Nc2ccc(N3C[C@@H](C)O[C@@H](C)C3)nc2)cccc1-c1ccc(OC(F)(F)F)cc1 [Erismodegib] (1 nM)
[1]
  normalised response: 99.8%
[2]
  normalised response: 99.9%
[3]
  normalised response: 83.1%
[4]
  normalised response: 93.4%
[5]
  normalised response: 99.1%
[6]
  normalised response: 93.4%
[7]
  normalised response: 101%
[8]
  normalised response: 105%
[9]
  normalised response: 104%
[10]
  normalised response: 97%
[11]
  normalised response: 94.1%
[12]
  normalised response: 103%
[13]
  normalised response: 87.1%
[14]
  normalised response: 96.7%
[15]
  normalised response: 99%
[16]
  normalised response: 96.4%
[17]
  normalised response: 104%
[18]
  normalised response: 101%

## C[C@H]1C[C@@H]2[C@H]([C@@H](O)C[C@@]3(C)[C@H]2CC[C@]3(O)C(=O)CO)[C@@]2(C)C=CC(=O)C=C12 [Methylprednisolone] (1 nM)
[1]
  normalised response: 83.8%
[2]
  normalised response: 121%
[3]
  normalised response: 103%
[4]
  normalised response: 89.7%
[5]
  normalised response: 119%
[6]
  normalised response: 107%
[7]
  normalised response: 101%
[8]
  normalised response: 106%
[9]
  normalised response: 92.1%
[10]
  normalised response: 102%
[11]
  normalised response: 101%
[12]
  normalised response: 106%
[13]
  normalised response: 102%
[14]
  normalised response: 98.3%
[15]
  normalised response: 114%
[16]
  normalised response: 97.2%
[17]
  normalised response: 101%
[18]
  normalised response: 88.1%

## O=C(NC[C@H](O)CO)c1ccncc1Nc1ccc(I)cc1F [Pimasertib] (1 nM)
[1]
  normalised response: 90.8%
[2]
  normalised response: 78.7%
[3]
  normalised response: 100%
[4]
  normalised response: 73.1%
[5]
  normalised response: 103%
[7]
  normalised response: 76.4%
[8]
  normalised response: 116%
[9]
  normalised response: 106%
[10]
  normalised response: 97.8%
[11]
  normalised response: 96.3%
[12]
  normalised response: 102%
[13]
  normalised response: 87.1%
[14]
  normalised response: 88.5%
[15]
  normalised response: 83.9%
[16]
  normalised response: 104%
[17]
  normalised response: 103%
[18]
  normalised response: 67%
